Laboratory results taken from PubChem BioAssay AID540256 (National Center for Advancing Translational Sciences (NCATS), 2011).
In all, about 300,000 compounds went through this assay and about 3,700 (1.2%) were called active. Inconclusive results, whose numbers are uncertain, are shown with a selection of clear calls. Calls come from the whole dose curve; tested in HEK293 cells. Potencies of inconclusive entries are doubtful fits and often do not repeat.
% is set by controls: 0 for no effect and ±100 for the full control effect; potency is the fitted concentration of half-maximal effect.

Assay: qHTS for Inhibitors of binding or entry into cells for Lassa Virus; note: nearly all actives have a fitted effect of over 50% in size
Details: Lassa virus pseudotype entry inhibition, cell reporter; activity change, negative = inhibition: at 37.9 µM (top of the series) unless noted
In the case of `COc1cc(NC(=O)CSc2nc3ccccc3cc2Cc2ccccc2)cc(OC)c1`, the Potency is reported as inconclusive: 2.91 µM [inhibitor, full curve, poor fit]. In the case of `C=CCNC(=S)/N=C/c1c(O)[nH]c(=O)[nH]c1=O`, the “activity change, negative = inhibition” value is reported as inactive: -10.6%. With `CC(C)c1ccc(Nc2c(-c3ccccn3)nc3ccccn23)cc1` the Potency was inconclusive: 10 µM [inhibitor, partial curve, poor fit]. With `CC(C)c1ccc(NC(=O)C2CC3CCC2C3)cc1` (stereo not given) the Potency was inconclusive: 10 µM [inhibitor, partial curve, poor fit]. In the case of `N#CC1=C(N)SC(N)=C(C#N)C1C1C=CCCC1` (stereo not given), the “activity change, negative = inhibition” value is reported as inactive: 0.6%. With `CCOC(=O)c1c(C)oc2nc(C)nc(NCCCN3CCN(c4cc(C)ccc4C)CC3)c12` the Potency was inconclusive: 35.5 µM [activator, partial curve, poor fit]. With `O=C(CN1CCCC1)Nc1ccc(-c2nc3cc(NC(=O)CN4CCCC4)ccc3o2)cc1` the Potency was inconclusive: 29.1 µM [inhibitor, single point]. For `Cc1ccc(-c2cn(-c3ccccc3)c3[n+]2CCCS3)cc1`, the Potency was inconclusive: 20.6 µM [inhibitor, single point]. In the case of `CCOC(=O)C(CC)Sc1nc2c(c(=O)[nH]c(=O)n2C)n1C/C=C(/C)Cl` (stereo not given), the Potency is reported as inconclusive: 35.5 µM [inhibitor, single point]. In the case of `COc1ccc(-c2noc(CNC(=O)COc3cccc(C)c3C)n2)cc1`, the Potency is reported as inconclusive: 35.5 µM [inhibitor, single point]. For `Cc1occc1C(=O)N/N=C/c1ccc(N(C)C)cc1`, the Potency was inconclusive: 10 µM [inhibitor, single point]. In the case of `Cc1onc(-c2ccccc2Cl)c1C(=O)c1ccccc1`, the “activity change, negative = inhibition” value is reported as inactive: 8.16%. In the case of `COc1ccc(CCNC(=O)CCSc2nc(-c3ccco3)cc(C(F)(F)F)n2)cc1`, the “activity change, negative = inhibition” value is reported as inactive: -26.4%. For `CC(NC(C(=O)c1ccccc1)c1ccccc1)c1ccccc1` (stereo not given), the Potency was inconclusive: 8.91 µM [activator, partial curve]. For `Cc1ccc(-c2nc3ncccc3o2)cc1NC(=O)c1sc2ccccc2c1Cl`, the Potency was inconclusive: 20.6 µM [inhibitor, single point]. With `O=C(c1ccncc1)N1CCN(c2ccc3ccccc3n2)CC1` the Potency was inconclusive: 0.562 µM [activator, single point]. In the case of `CS(=O)(=O)N1N=C(c2cccs2)CC1c1ccccc1F` (stereo not given), the Potency is reported as inconclusive: 35.5 µM [activator, single point]. In the case of `COc1ccc(CCNC(=O)C(=O)NCC(c2cccs2)S(=O)(=O)c2ccc(F)cc2)cc1` (stereo not given), the Potency is reported as inconclusive: 2.82 µM [inhibitor, full curve]. In the case of `COc1ccc(NC(=O)CN2CCC(n3c(C)nc4cc(F)ccc43)CC2)c(OC)c1`, the “activity change, negative = inhibition” value is reported as inactive: -5.04%. For `O=C(Nc1ccc(F)cc1)c1nsc(Cl)c1Cl`, the Potency was inconclusive: 3.98 µM [activator, single point]. In the case of `CSc1ccccc1NC(=O)CN(C)Cc1ccc(Br)cc1`, the “activity change, negative = inhibition” value is reported as inactive: -22.9%. For `O=C(CN1C(=O)C2CCCCC2C1=O)NC1CCCc2ccccc21` (stereo not given), the “activity change, negative = inhibition” value was inactive: -1.55%. In the case of `COC(=O)c1sccc1NC(=O)c1ccccc1C(=O)O`, the “activity change, negative = inhibition” value is reported as inactive: -0.546%. With `Cc1sc2ncnc(NCC(c3ccco3)N3CCCC3)c2c1C` (stereo not given) the “activity change, negative = inhibition” value was inactive: -25%. With `O=c1[nH]nc(-c2ccc(F)cc2)cc1-c1ccccc1` the Potency was inconclusive: 3.98 µM [inhibitor, full curve]. For `O=C(NCCO)c1ccc2nc(-c3ccco3)c(-c3ccco3)nc2c1`, the “activity change, negative = inhibition” value was inactive: 8.18%. In the case of `CCC(Sc1nc2n[nH]c(C)c2c(=N)n1-c1ccccc1Cl)C(=O)N(CC)CC` (stereo not given), the Potency is reported as inconclusive: 3.55 µM [inhibitor, partial curve]. For `CCOc1ccccc1C(=O)Nc1cccc(-c2ccc(N3CCOCC3)nn2)c1`, the Potency was inconclusive: 35.5 µM [inhibitor, single point]. With `Cn1c(=O)c(/C(N)=N/OC(=O)c2ccccc2)cn(-c2ccccc2)c1=O` the Potency was inconclusive: 20 µM [inhibitor, partial curve, poor fit]. For `CSc1ccccc1NC(=O)NCCCl`, the “activity change, negative = inhibition” value was inactive: 11.8% [at 46.1 µM]. With `Cc1ccc(CCNC(=O)c2ccc(Nc3nc4ccccc4n4nnnc34)cc2)cc1` the “activity change, negative = inhibition” value was inactive: 2.27% [at 46.1 µM]. For `CC1=NN(c2ccccc2)C(=O)C1C=Nc1ccccc1O` (stereo not given), the Potency was inconclusive: 12.6 µM [inhibitor, partial curve, poor fit]. In the case of `COc1ccc(Nc2oc(COc3ccc(Cl)cc3)nc2C#N)cc1`, the Potency is reported as inconclusive: 11.2 µM [inhibitor, partial curve]. For `O=C(NCc1cccs1)C1CCC(=O)N(Cc2cccc(C(F)(F)F)c2)C1` (stereo not given), the Potency was inconclusive: 15.8 µM [inhibitor, single point]. In the case of `COc1cc(NC(=O)C2CCN(S(=O)(=O)c3c(C)noc3/C=C/c3ccccc3F)CC2)cc(OC)c1OC`, the Potency is reported as inconclusive: 6.31 µM [inhibitor, partial curve, poor fit]. For `Cc1cccn2cc(COc3ccc(-c4ccccc4)cc3)nc12`, the Potency was inconclusive: 2.82 µM [inhibitor, full curve, poor fit]. In the case of `COc1ccc(-c2nn3ncccc3c2-c2ccnc(Nc3ccc(Cl)c(C(F)(F)F)c3)n2)cc1`, the Potency is reported as inconclusive: 22.3 µM [inhibitor, single point]. In the case of `COc1ccc2nc(NC(=O)c3cccc(S(=O)(=O)N4CCOCC4)c3)sc2c1`, the Potency is reported as inconclusive: 0.631 µM [inhibitor, partial curve, poor fit]. In the case of `COc1cccc(C(=O)Nc2nnc(SCC(=O)NC3CCCC3)s2)c1`, the Potency is reported as inconclusive: 5.62 µM [inhibitor, single point]. In the case of `FC(F)(F)c1cccc(Nc2c3c(nc4ccc(Cl)cc24)CCC3)c1`, the Potency is reported as inconclusive: 7.08 µM [inhibitor, partial curve, poor fit]. For `CC(=O)N(C)c1ccc(OCC(O)CN(Cc2ccco2)S(=O)(=O)c2ccc(C)cc2)cc1` (stereo not given), the “activity change, negative = inhibition” value was inactive: -15.9%. With `O=C(NCCc1ccc(Cl)cc1)C(=O)c1c[nH]c2ccccc12` the Potency was inconclusive: 11.2 µM [inhibitor, partial curve]. With `CCCCCN1C(C(=O)c2ccccc2)=C(OC(=O)CC)c2ccccc2S1(=O)=O` the Potency was inconclusive: 35.5 µM [inhibitor, single point]. In the case of `CCc1ccc2c(c1)C(c1ccc(N3CCOCC3)cc1)=NNC(c1ccncc1)=N2`, the “activity change, negative = inhibition” value is reported as inactive: -20% [at 46.1 µM]. With `CN1CCN(CCOC2c3ccccc3CSc3ccc(Cl)cc32)CC1` (stereo not given) the Potency was active: 20.6 µM. In the case of `COc1ccc2oc(/C=C/N(C)C)c(C(=O)c3ccc(Cl)cc3)c2c1`, the Potency is reported as inconclusive: 18.3 µM [inhibitor, partial curve, poor fit]. In the case of `CSCc1ccc(C(=O)Nc2cccc(C)c2C)cc1`, the “activity change, negative = inhibition” value is reported as inactive: 0.964%. For `Cc1cc(-c2nn(-c3ccccc3F)cc2CN2CCCC(CO)C2)c(C)s1` (stereo not given), the Potency was inconclusive: 39.8 µM [inhibitor, partial curve, poor fit]. For `CCOC(=O)C1=C(C)OC(N)=C(C(=O)OCC)C1c1cccnc1` (stereo not given), the “activity change, negative = inhibition” value was inactive: 9.36%. With `Cc1cc(NC(=O)CCN2C(=O)C3C4CCC(C4)C3C2=O)cc(C)c1Br` (stereo not given) the Potency was inconclusive: 11.2 µM [inhibitor, partial curve, poor fit]. For `CC(=O)N1N=C(c2ccco2)CC1c1cccs1` (stereo not given), the “activity change, negative = inhibition” value was inactive: -9.85%. In the case of `Nc1ccc(C(=O)N/N=C\c2cc(N=Nc3cccc4ccccc34)ccc2O)cc1`, the Potency is reported as inconclusive: 25.9 µM [inhibitor, single point]. In the case of `CCOC(=O)c1sc2nc(C)cc(C)c2c1N`, the Potency is reported as inconclusive: 25.9 µM [activator, single point]. In the case of `CCOc1ccccc1N1CCN(C(=O)c2cc3ccccc3cc2OC)CC1`, the Potency is reported as inconclusive: 6.31 µM [inhibitor, single point]. With `CCn1nc(C)c(NC(=O)/C=C/c2ccc(OC)c(COc3ccc(Br)cc3)c2)c1C` the Potency was inconclusive: 2.31 µM [inhibitor, full curve, poor fit]. In the case of `O=C1C(Cl)=C(Nc2ccc(O)cc2)C(=O)c2ccccc21`, the Potency is reported as active: 4.47 µM. With `COc1ccc(C(C)=O)cc1CSc1nc2ccccc2c(=O)n1-c1ccccc1C` the Potency was inconclusive: 11.2 µM [inhibitor, single point]. With `Cc1nn(-c2ccccc2)c(C)c1P(=O)(c1ccccc1)N(C)C` (stereo not given) the Potency was inconclusive: 2.59 µM [inhibitor, partial curve, poor fit]. In the case of `O=c1[nH]c(CSc2nnc(-c3cccnc3)n2C2CCCCC2)nc2ccccc12`, the “activity change, negative = inhibition” value is reported as inactive: -13.9%. For `CCCOc1ccc(C(=O)N(Cc2ccco2)Cc2ccco2)cc1`, the Potency was inconclusive: 20 µM [inhibitor, partial curve, poor fit]. In the case of `COc1ccc(/C=C/C(=O)Nc2ccncc2)cc1OC`, the “activity change, negative = inhibition” value is reported as inactive: 6.47% [at 46.1 µM]. For `COc1cc(/C=C2/CCc3ccccc3C2=O)cc(OC)c1OC`, the Potency was inconclusive: 15.8 µM [inhibitor, partial curve, poor fit]. With `O=C(O)c1sccc1Oc1ccc(NS(=O)(=O)c2cccc(F)c2)cc1` the “activity change, negative = inhibition” value was inactive: 6.15% [at 46.1 µM]. With `Cc1ccc(S(=O)(=O)NCCc2nnc3ccc(SCC(=O)Nc4ccc(F)cc4F)nn23)cc1` the “activity change, negative = inhibition” value was inactive: -1.22% [at 46.1 µM]. In the case of `COc1ccc(OC)c(S(=O)(=O)Nc2cccc(C(C)=O)c2)c1`, the “activity change, negative = inhibition” value is reported as inactive: -2.37%. With `COc1ccccc1NC(=O)CN1CCCCCC1` the “activity change, negative = inhibition” value was inactive: -14.9%. In the case of `CCOC(=O)Cc1cnc(NC(=O)CSc2nc(C)c(CC)c(=O)[nH]2)s1`, the Potency is reported as inconclusive: 35.5 µM [inhibitor, single point]. In the case of `Cc1ccc(SCC(=O)Nc2ccccc2C(=O)O)cc1`, the Potency is reported as inconclusive: 35.5 µM [inhibitor, single point]. With `CC(C)c1ccc(NC(=S)N(C)CCc2ccccn2)cc1` the Potency was inconclusive: 0.562 µM [inhibitor, full curve, poor fit]. For `NC(=O)c1cc2ccccc2oc1=NCc1ccccc1`, the Potency was inconclusive: 1.26 µM [activator, single point].
